Measured values from patent US5585353A, “Antibiotic peptides containing D-amino acids” (The Rockefeller University, priority 1994, dated 1996).
Not every detail of the peptide structures is certain; ends, links or a residue may be inferred.

Key:
Test in all cases: inhibition zone assay, lethal concentration
Assay type in all cases: cell-based
[1] = system: S. aureus Cowan 1; conditions: S. aureus Cowan 1, thin agarose plates
Description: (§1) Thin agar or agarose plates (8.5 cm diameter) were prepared with 6 ml of rich medium containing 100 ug/ml of streptomycin and 2×10^5 viable cells of a test organism resistant to streptomycin. Wells of 3.5 mm diameter were punched in the plates and 3 ul of serially diluted samples were placed in the wells. The diameters of the zones of inhibition around the wells were measured after overnight incubation at 30° or 37° C. For each peptide the squares of the zone diameters were plotted against the logarithm of the concentration, and from the slopes and intercepts the lethal concentrations were calculated as described by Hultmark (1983) EMBO J. 2, 571-76 or Hultmark et al (1982) Eur. J. Biochem. 127 207-217 each of which being incorporated herein by reference.
(§2) Lethal Concentrations calculated from inhibition zones on thin agarose
aeruginosa; Bs11: B. subtilis; +ME: plates prepared with medium E; Staph:
(§3) S. aureus Cowan 1; Strep: S. pyogenes; SRC: Sheep red cells.; *all amino

[2] = system: B. subtilis Bs11; conditions: for Lethal Concentrations Bs11 +ME: B. subtilis Bs11, plates prepared with medium E; for Lethal Concentrations Bs11: B. subtilis Bs11, thin agarose plates
Description: as §1, §2
(§4) aeruginosa; Bs11: B. subtilis; +ME: plates prepared with medium E; Staph: […]

[3] = system: S. pyogenes; conditions: thin agarose plates
Description: as §1, §2, §3

[4] = system: P. aeruginosa OT97; conditions: P. aeruginosa OT97, thin agarose plates
Description: as §1, §2
(§5) plates seeded with the respective organisms. D21: E. coli; OT97: P.
as §4

[5] = system: E. coli D21; conditions: E. coli D21, thin agarose plates
Description: as §1, §2, §5

Row | SMILES | Lethal Concentrations Staph [1] | Lethal Concentrations Bs11 +ME [2] | Lethal Concentrations Bs11 [2] | Lethal Concentrations Strep [3] | Lethal Concentrations OT97 [4] | Lethal Concentrations D21 [5]
1 | CC[C@H](C)[C@H](NC(=O)CNC(=O)[C@H](CCC(N)=O)NC(=O)CNC(=O)[C@@H](NC(=O)[C@H](CCCCN)NC(=O)[C@H](CCC(=O)O)NC(=O)[C@@H](NC(=O)[C@H](CCCCN)NC(=O)[C@H](CCCCN)NC(=O)[C@H](Cc1ccccc1)NC(=O)[C@H](CC(C)C)NC(=O)[C@H](CCCCN)NC(=O)[C@H](Cc1c[nH]c2ccccc12)NC(=O)[C@@H](N)CCCCN)[C@@H](C)CC)C(C)C)C(=O)NCC(=O)N[C@@H](C)C(=O)N[C@H](C(=O)N[C@@H](CC(C)C)C(=O)N[C@@H](CCCCN)C(=O)N[C@H](C(=O)N[C@@H](CC(C)C)C(=O)N[C@H](C(=O)N[C@H](C(=O)NCC(=O)N[C@@H](CC(C)C)C(N)=O)[C@@H](C)O)[C@@H](C)O)C(C)C)C(C)C [Compound 3] | 2 µM | 0.9 µM | 0.7 µM | 1 µM | 1 µM | 0.5 µM
2 | CC[C@@H](C)[C@@H](NC(=O)CNC(=O)[C@@H](CCC(N)=O)NC(=O)CNC(=O)[C@H](NC(=O)[C@@H](CCCCN)NC(=O)[C@@H](CCC(=O)O)NC(=O)[C@H](NC(=O)[C@@H](CCCCN)NC(=O)[C@@H](CCCCN)NC(=O)[C@@H](Cc1ccccc1)NC(=O)[C@@H](CC(C)C)NC(=O)[C@@H](CCCCN)NC(=O)[C@@H](Cc1c[nH]c2ccccc12)NC(=O)[C@H](N)CCCCN)[C@H](C)CC)C(C)C)C(=O)NCC(=O)N[C@H](C)C(=O)N[C@@H](C(=O)N[C@H](CC(C)C)C(=O)N[C@H](CCCCN)C(=O)N[C@@H](C(=O)N[C@H](CC(C)C)C(=O)N[C@@H](C(=O)N[C@@H](C(=O)NCC(=O)N[C@H](CC(C)C)C(N)=O)[C@H](C)O)[C@H](C)O)C(C)C)C(C)C [Compound 4] | 8 µM | 1 µM | 1 µM | 0.8 µM | 2 µM | 0.8 µM
3 | CC[C@H](C)[C@H](NC(=O)CNC(=O)[C@@H](NC(=O)[C@H](CCCCN)NC(=O)[C@H](CCCCN)NC(=O)[C@H](Cc1ccccc1)NC(=O)[C@H](CC(C)C)NC(=O)[C@H](CCCCN)NC(=O)[C@H](Cc1c[nH]c2ccccc12)NC(=O)[C@@H](N)CCCCN)[C@@H](C)CC)C(=O)NCC(=O)N[C@@H](C)C(=O)N[C@H](C(=O)N[C@@H](CC(C)C)C(=O)N[C@@H](CCCCN)C(=O)N[C@H](C(=O)N[C@@H](CC(C)C)C(=O)N[C@H](C(=O)N[C@H](C(=O)NCC(=O)N[C@@H](CC(C)C)C(=O)N1CCC[C@H]1C(=O)N[C@@H](C)C(=O)N[C@@H](CC(C)C)C(=O)N[C@H](C(=O)N[C@@H](CO)C(N)=O)[C@@H](C)CC)[C@@H](C)O)[C@@H](C)O)C(C)C)C(C)C [Compound 6] | 1 µM | 0.5 µM | 0.4 µM | 2 µM | 0.7 µM | 0.3 µM
4 | CC[C@@H](C)[C@@H](NC(=O)CNC(=O)[C@H](NC(=O)[C@@H](CCCCN)NC(=O)[C@@H](CCCCN)NC(=O)[C@@H](Cc1ccccc1)NC(=O)[C@@H](CC(C)C)NC(=O)[C@@H](CCCCN)NC(=O)[C@@H](Cc1c[nH]c2ccccc12)NC(=O)[C@H](N)CCCCN)[C@H](C)CC)C(=O)NCC(=O)N[C@H](C)C(=O)N[C@@H](C(=O)N[C@H](CC(C)C)C(=O)N[C@H](CCCCN)C(=O)N[C@@H](C(=O)N[C@H](CC(C)C)C(=O)N[C@@H](C(=O)N[C@@H](C(=O)NCC(=O)N[C@H](CC(C)C)C(=O)N1CCC[C@@H]1C(=O)N[C@H](C)C(=O)N[C@H](CC(C)C)C(=O)N[C@@H](C(=O)N[C@H](CO)C(N)=O)[C@H](C)CC)[C@H](C)O)[C@H](C)O)C(C)C)C(C)C [Compound 7] | 0.3 µM | 0.2 µM | 0.2 µM | 0.8 µM | 0.6 µM | 0.3 µM
